From publication PMC13132546 come the findings set out here.

Amino acid sequences for entries named in this document (tags omitted).
UniProt Q9NYF3: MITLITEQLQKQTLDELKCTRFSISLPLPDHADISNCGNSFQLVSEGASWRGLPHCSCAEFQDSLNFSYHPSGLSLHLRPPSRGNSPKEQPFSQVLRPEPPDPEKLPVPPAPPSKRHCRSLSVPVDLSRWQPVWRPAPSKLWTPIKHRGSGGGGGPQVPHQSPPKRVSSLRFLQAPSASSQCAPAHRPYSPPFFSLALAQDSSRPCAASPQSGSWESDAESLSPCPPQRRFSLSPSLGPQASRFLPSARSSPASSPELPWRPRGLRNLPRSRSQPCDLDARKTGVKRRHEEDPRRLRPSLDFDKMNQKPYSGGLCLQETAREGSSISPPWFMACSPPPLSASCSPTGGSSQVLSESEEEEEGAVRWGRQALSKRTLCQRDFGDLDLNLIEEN
UniProt O14965: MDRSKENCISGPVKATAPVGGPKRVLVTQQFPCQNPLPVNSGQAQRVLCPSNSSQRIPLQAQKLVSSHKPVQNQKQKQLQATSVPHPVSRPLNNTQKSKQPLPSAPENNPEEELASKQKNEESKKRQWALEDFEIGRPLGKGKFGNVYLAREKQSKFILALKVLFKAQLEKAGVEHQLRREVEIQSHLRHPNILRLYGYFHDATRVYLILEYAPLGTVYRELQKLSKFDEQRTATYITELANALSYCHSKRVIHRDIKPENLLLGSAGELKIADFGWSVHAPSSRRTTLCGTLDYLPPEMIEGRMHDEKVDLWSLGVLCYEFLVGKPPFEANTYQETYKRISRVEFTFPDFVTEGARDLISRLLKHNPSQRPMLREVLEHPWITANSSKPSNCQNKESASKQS
UniProt P53350: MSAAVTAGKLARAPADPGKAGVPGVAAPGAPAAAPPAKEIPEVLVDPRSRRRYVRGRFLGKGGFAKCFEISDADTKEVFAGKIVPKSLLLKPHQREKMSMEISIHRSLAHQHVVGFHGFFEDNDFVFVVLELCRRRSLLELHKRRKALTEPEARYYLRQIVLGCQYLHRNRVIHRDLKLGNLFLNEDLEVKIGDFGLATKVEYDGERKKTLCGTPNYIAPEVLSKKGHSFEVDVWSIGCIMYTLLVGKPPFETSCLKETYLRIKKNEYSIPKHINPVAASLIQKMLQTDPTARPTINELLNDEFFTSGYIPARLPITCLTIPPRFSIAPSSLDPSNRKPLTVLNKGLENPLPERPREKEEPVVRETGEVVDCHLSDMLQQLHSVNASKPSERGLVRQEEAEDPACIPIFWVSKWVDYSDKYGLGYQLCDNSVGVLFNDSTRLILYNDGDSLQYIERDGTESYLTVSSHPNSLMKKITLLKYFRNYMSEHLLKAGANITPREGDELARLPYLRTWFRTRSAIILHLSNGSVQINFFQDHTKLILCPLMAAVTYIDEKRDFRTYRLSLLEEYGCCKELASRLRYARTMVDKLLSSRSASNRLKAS

The assay deals with LAP-tagged FAM53C (GFP- and S-tagged) (UniProt Q9NYF3). Description: affinity purification with mass spectrometry; tandem affinity purification of LAP-tagged FAM53C from HEK-293T lysate (GFP-coupled beads, PreScission cleavage, S-protein agarose; washes with 200 mM KCl, 0.05% NP40), in-gel digestion, LC-MS/MS.

No constants are given. Whether binding was seen depends on the method and setting. In cells and extracts the contact can be indirect. These calls come from enrichment with a bait or labelling near it, and not all partners need be listed.

Consider “AURKA (from UniProt O14965 1-403) (enzyme)”, for which the binding result is “binds”.

For the substance “PLK1 (from UniProt P53350 1-603) (enzyme)”, the binding entry was “binds”.
